Measurements as given in patent US20110126301A1.
These are yes or no findings as the source states them, for the method shown. Some entries that bind do so weakly or less than the wild type. For part of these data: Where a sequence is shown, tags or fusion partners need not be part of it.

Assays:
[1] = target: T1, mouse 5B6 (Clec9A), membrane bound (mouse); assay: flow cytometry on transfected cells and fresh mouse hemopoietic cells
T1 sequence: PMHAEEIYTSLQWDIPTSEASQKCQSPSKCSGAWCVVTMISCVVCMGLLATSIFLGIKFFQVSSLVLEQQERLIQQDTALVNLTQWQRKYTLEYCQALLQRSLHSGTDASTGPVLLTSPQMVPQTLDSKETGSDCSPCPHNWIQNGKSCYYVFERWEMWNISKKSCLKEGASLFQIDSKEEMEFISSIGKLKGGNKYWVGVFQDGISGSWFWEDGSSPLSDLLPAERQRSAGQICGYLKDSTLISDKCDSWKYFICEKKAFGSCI

[2] = target: T1, mouse 5B6 (Clec9A), membrane bound (mouse); assay: hybridoma supernatants screened by flow cytometry on CHO 5B6-FLAG and EL4 GFP-5B6 cells
[3] = target: T1, mouse 5B6 (Clec9A), membrane bound (mouse); assay: flow cytometry on transiently transfected 293T cells; anti-FLAG 9H10-biotin and streptavidin-PE
[4] = target: T1, mouse 5B6 (Clec9A), membrane bound (mouse); assay: flow cytometry, biotinylated soluble protein on CHO-m5B6 cells; streptavidin-PE
[5] = target: T1, mouse 5B6 (Clec9A), membrane bound (mouse); assay: flow cytometry on 293T-m5B6 (FIG. 11B) and CHO-m5B6 (FIG. 11C)
[6] = target: T1, mouse 5B6 (Clec9A), membrane bound (mouse); assay: flow cytometry on CHO-m5B6 (FIG. 11C); streptavidin-PE

Binder	binding [1]	binding [2]	binding [3]	binding [4]	binding [5]	binding [6]
rat mAb 24/04-10B4 (anti-5B6 / anti-Clec9A antibody) (antibody, V domains shown) VH: AVQIVESGGGLVQPKESLKISCTASGFTFSNAAIYWVRQTPGKGLEWVGRIRTRPSKYATDYADSVRGRFTISRDDSKSMVYLQMDNLRTEDTAMYYCTPRATEDVPFYWGQGVMVTVSS VL: DIVMTQTPSSQAVSAGEKVTMNCKSSQSVLYDENKKNYLAWYQQKSGQSPKLLIYWASTGESGVPDRFIGSGSGTDFTLTISSVQAEDLAVYYCQQYYDFPPTFGGGTKLELKR	binds	binds	–	–	–	–
soluble FLAG-tagged mouse 5B6 including stalk (receptor) ASISARQNSGLHHILDAQKMVWNHRGARQDYKDDDDKTREQQERLIQQDTALVNLTQWQRKYTLEYCQALLQRSLHSGTDASTGPVLLTSPQMVPQTLDSKETGSDCSPCPHNWIQNGKSCYYVFERWEMWNISKKSCLKEGASLFQIDSKEEMEFISSIGKLKGGNKYWVGVFQDGISGSWFWEDGSSPLSDLLPAERQRSAGQICGYLKDSTLISDKCDSWKYFICEKKAFGSCI	–	–	binds	binds	binds	–
soluble FLAG-tagged mouse 5B6 without stalk (receptor, enzymatically biotinylated at the biotinylation consensus sequence) ASISARQNSGLHHILDAQKMVWNHRGARQDYKDDDDKTRGSDCSPCPHNWIQNGKSCYYVFERWEMWNISKKSCLKEGASLFQIDSKEEMEFISSIGKLKGGNKYWVGVFQDGISGSWFWEDGSSPLSDLLPAERQRSAGQICGYLKDSTLISDKCDSWKYFICEKKAFGSCI	–	–	–	binds	–	binds
soluble FLAG-tagged human 5B6 without stalk (receptor, enzymatically biotinylated at the biotinylation consensus sequence) ASISARQNSGLHHILDAQKMVWNHRGARQDYKDDDDKTRNSSPCPNNWIQNRESCYYVSEIWSIWHTSQENCLKEGSTLLQIESKEEMDFITGSLRKIKGSYDYWVGLSQDGHSGRWLWQDGSSPSPGLLPAERSQSANQVCGYVKSNSLLSSNCSTWKYFICEKYALRSSV	–	–	–	binds	–	binds
